No constants are given. Whether binding was seen depends on the method and setting. A result given as binding can be weak or reduced; the word gives no strength. Sequences can lack the tags named with a protein.

For one experiment, the target named is GST-PHC2b. The experiment can be described thus: pull-down.
The target of another experiment is GST-∆PcR CBX8. The experiment can be described thus: pull-down.

B1: FLAG-PKD1 (protein kinase D1) (enzyme, UniProt Q15139 1-912)
chain: MSAPPVLRPPSPLLPVAAAAAAAAAALVPGSGPGPAPFLAPVAAPVGGISFHLQIGLSREPVLLLQDSSGDYSLAHVREMACSIVDQKFPECGFYGMYDKILLFRHDPTSENILQLVKAASDIQEGDLIEVVLSASATFEDFQIRPHALFVHSYRAPAFCDHCGEMLWGLVRQGLKCEGCGLNYHKRCAFKIPNNCSGVRRRRLSNVSLTGVSTIRTSSAELSTSAPDEPLLQKSPSESFIGREKRSNSQSYIGRPIHLDKILMSKVKVPHTFVIHSYTRPTVCQYCKKLLKGLFRQGLQCKDCRFNCHKRCAPKVPNNCLGEVTINGDLLSPGAESDVVMEEGSDDNDSERNSGLMDDMEEAMVQDAEMAMAECQNDSGEMQDPDPDHEDANRTISPSTSNNIPLMRVVQSVKHTKRKSSTVMKEGWMVHYTSKDTLRKRHYWRLDSKCITLFQNDTGSRYYKEIPLSEILSLEPVKTSALIPNGANPHCFEITTANVVYYVGENVVNPSSPSPNNSVLTSGVGADVARMWEIAIQHALMPVIPKGSSVGTGTNLHRDISVSISVSNCQIQENVDISTVYQIFPDEVLGSGQFGIVYGGKHRKTGRDVAIKIIDKLRFPTKQESQLRNEVAILQNLHHPGVVNLECMFETPERVFVVMEKLHGDMLEMILSSEKGRLPEHITKFLITQILVALRHLHFKNIVHCDLKPENVLLASADPFPQVKLCDFGFARIIGEKSFRRSVVGTPAYLAPEVLRNKGYNRSLDMWSVGVIIYVSLSGTFPFNEDEDIHDQIQNAAFMYPPNPWKEISHEAIDLINNLLQVKMRKRYSVDKTLSHPWLQDYQTWLDLRELECKIGERYITHESDDLRWEKYAGEQGLQYPTHLINPSASHSDTPETEETEMKALGERVSIL
Consider B1, for which the binding result in the experiment with GST-PHC2b and with GST-∆PcR CBX8 was “binds” throughout.

(Values after doi:10.1101/2020.08.09.242891 (bioRxiv, 2020).)
